Experiment [1] deals with telomeric repeat binding factor 2 (human (endogenous in DU 145 and HEK293T)) (UniProt Q15554). Nature of the experiment: co-IP; DU 145 or HEK293T cellular lysates in a low stringency buffer, immunoprecipitated with anti-TRF2 antibodies or control IgG; immunoblot of IP, input and immunodepleted fractions.
For experiment [2] the target is unchanged. Kind of experiment: proximity ligation; in situ PLA (Duolink kit) on HEK293T cells; 30 nuclei per group quantified; single primary antibodies, isotype control and PLA probes only as negative controls.

By UniProt entry, the sequences of proteins in these tests, tags left out.
UniProt Q15554: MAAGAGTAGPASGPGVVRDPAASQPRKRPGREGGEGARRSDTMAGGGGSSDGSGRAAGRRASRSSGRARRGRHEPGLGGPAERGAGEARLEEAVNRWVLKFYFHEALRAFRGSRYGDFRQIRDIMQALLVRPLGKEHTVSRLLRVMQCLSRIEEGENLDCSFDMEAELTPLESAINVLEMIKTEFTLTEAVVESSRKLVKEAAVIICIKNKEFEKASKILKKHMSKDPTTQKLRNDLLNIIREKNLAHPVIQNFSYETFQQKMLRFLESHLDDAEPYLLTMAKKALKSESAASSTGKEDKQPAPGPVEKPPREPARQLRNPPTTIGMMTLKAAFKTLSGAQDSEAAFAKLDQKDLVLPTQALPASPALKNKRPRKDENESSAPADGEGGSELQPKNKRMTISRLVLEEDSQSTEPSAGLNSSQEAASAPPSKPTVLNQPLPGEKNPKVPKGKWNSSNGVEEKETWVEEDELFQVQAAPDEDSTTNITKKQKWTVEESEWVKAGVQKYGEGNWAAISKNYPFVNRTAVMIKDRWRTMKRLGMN

Results on 1 molecule are retold here after paper PMC5681776.

No constants are given. Whether binding was seen depends on the method and setting. Binding seen in cells or lysates may run through a third protein. Some entries that bind do so weakly or less than the wild type.

B1: telomeric repeat binding factor 2-interacting protein 1 (protein, UniProt Q9NYB0 1-399)
chain: MAEAMDLGKDPNGPTHSSTLFVRDDGSSMSFYVRPSPAKRRLSTLILHGGGTVCRVQEPGAVLLAQPGEALAEASGDFISTQYILDCVERNERLELEAYRLGPASAADTGSEAKPGALAEGAAEPEPQRHAGRIAFTDADDVAILTYVKENARSPSSVTGNALWKAMEKSSLTQHSWQSLKDRYLKHLRGQEHKYLLGDAPVSPSSQKLKRKAEEDPEAADSGEPQNKRTPDLPEEEYVKEEIQENEEAVKKMLVEATREFEEVVVDESPPDFEIHITMCDDDPPTPEEDSETQPDEEEEEEEEKVSQPEVGAAIKIIRQLMEKFNLDLSTVTQAFLKNSGELEATSAFLASGQRADGYPIWSRQDDIDLQKDDEDTREALVKKFGAQNVARRIEFRKK
Regarding B1, the binding result in experiment [1] and in experiment [2] was “binds” each time.
